For at least one compound, name, drawing or mass did not settle the structure.
System: BLM human melanoma cells
Experiment: Proliferation of BLM human melanoma cells (Example 20)
Type: cell-based
Description: The effects of the GnRH agonist (D-Lys6)-GnRH, Gossypol, the combination of D-Lys6-GnRH and racemic Gossypol, and a conjugate of (D-Lys6)-GnRH, and racemic Gossypol alone on the proliferation of BLM human melanoma cells are depicted in FIG. 20 (A), (B) and (C), respectively. Results are expressed as mean cell number per plate±SE. *, p<0.05 vs. control (C).

Cc1cc2c(C(C)C)c(O)c(O)c(C=O)c2c(O)c1-c1c(C)cc2c(C(C)C)c(O)c(O)c(C=O)c2c1O (racemic) [racemic Gossypol]
anti-proliferative effect on BLM melanoma cells: pronounced anti-proliferative effects
